# In paper PMC11994663:
# By UniProt entry, the sequences of proteins in these tests, tags left out.
# UniProt O95292: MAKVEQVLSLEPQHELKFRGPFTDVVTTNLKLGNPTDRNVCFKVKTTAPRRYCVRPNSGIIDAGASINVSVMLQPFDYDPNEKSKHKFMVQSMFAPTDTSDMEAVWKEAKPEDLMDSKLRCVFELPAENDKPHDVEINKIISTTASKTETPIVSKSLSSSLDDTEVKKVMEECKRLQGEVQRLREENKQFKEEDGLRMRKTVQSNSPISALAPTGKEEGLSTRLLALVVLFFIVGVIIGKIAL
# These are yes or no findings as the source states them, for the method shown. In cells and extracts the contact can be indirect. Some binding calls cover weakened binding; strength is not graded here. Where a sequence is shown, tags or fusion partners need not be part of it.
# Biological target: T1, PTPIP51-Flag (UniProt Q96TC7)
# T1 sequence: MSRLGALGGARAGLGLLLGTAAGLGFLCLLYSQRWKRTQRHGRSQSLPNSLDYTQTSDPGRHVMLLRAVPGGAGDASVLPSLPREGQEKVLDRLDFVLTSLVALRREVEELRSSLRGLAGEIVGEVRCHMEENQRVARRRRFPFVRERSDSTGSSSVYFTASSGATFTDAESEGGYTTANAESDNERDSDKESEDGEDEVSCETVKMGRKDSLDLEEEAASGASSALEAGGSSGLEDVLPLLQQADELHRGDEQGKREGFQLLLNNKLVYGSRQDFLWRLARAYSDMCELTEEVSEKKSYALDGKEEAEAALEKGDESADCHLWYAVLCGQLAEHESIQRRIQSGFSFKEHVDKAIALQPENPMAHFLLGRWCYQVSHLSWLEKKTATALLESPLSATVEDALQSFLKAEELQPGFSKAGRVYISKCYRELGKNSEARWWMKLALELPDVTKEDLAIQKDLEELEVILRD
# Test: co-IP; lysate (1 mg) of SH-SY5Y cells co-transfected with PTPIP51-Flag or VAPB-Flag and Vector, SNCA or SNCA-S129A for 48 h, IP with anti-Flag antibody overnight at 4°C, magnetic beads, IP buffer 150 mM NaCl, 10 mM Tris-HCl pH 7.5, 2 mM EDTA, 0.5% Triton X-100; western blot
substance,measurement,value
"vesicle-associated membrane protein-associated protein B (VAPB), endogenous in SH-SY5Y cells (from UniProt O95292 1-243)",binding,binds
